According to PMC1097723:
Results are given in words; binding and its absence hold for the method and conditions named. For some of these results: In cells and extracts the contact can be indirect. Some binding calls cover weakened binding; strength is not graded here. Where a sequence is shown, tags or fusion partners need not be part of it.

Columns and labels:
GFP-AIDA-1c (human) = molecular target: T1, GFP-AIDA-1c (human) (UniProt Q7Z6G8); test: co-IP; lysate of HeLa cells transfected with GFP, GFP-AIDA-1c or YFP-AIDA-1a; immunoprecipitation with anti-GFP antibodies, Western blotting with anti-coilin; modified RIPA buffer
T1 sequence: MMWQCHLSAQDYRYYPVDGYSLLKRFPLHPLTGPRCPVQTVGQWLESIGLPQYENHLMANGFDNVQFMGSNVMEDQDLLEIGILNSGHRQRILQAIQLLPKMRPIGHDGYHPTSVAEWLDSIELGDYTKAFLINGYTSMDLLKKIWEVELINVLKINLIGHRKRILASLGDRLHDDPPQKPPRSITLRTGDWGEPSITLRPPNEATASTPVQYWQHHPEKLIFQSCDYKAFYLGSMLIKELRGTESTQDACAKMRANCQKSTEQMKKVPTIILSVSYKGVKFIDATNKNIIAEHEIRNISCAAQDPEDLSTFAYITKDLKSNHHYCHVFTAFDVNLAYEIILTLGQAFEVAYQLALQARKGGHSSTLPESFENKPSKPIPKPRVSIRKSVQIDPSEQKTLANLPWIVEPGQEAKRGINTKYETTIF

YFP-AIDA-1a = molecular target: T2, YFP-AIDA-1a (UniProt Q7Z6G8); test: as above
T2 sequence: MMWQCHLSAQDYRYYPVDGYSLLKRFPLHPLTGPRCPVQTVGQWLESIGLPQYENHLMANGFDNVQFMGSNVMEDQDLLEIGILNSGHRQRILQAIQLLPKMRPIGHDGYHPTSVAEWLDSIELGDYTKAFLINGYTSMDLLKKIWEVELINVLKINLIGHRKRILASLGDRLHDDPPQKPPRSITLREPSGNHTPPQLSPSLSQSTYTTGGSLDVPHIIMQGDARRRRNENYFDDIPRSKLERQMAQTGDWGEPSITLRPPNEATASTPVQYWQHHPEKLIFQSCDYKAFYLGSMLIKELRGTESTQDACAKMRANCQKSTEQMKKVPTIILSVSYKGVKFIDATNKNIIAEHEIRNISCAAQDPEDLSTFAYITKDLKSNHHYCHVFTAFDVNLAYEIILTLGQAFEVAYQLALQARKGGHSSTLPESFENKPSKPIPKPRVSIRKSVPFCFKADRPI

GST-AIDA-1c (human) [1] = molecular target: T3, GST-AIDA-1c (human) (UniProt Q7Z6G8); test: pull-down; purified coilin incubated with GST-AIDA-1c on beads in mRIPA (150 mM NaCl) plus 2 mM DTT, 1 hour at 4°C; Western blotting with anti-coilin; both purified
T3 sequence: T1 sequence

GST-AIDA-1c (human) [2] = molecular target: T3, GST-AIDA-1c (human); test: condition: only with increasing NaCl concentrations in the binding buffer; pull-down; as a6 but with additional NaCl in the binding buffer (increasing concentrations, lanes 3–5 of Figure 4B); both purified

binding (GFP-AIDA-1c (human)) | binding (YFP-AIDA-1a) | binding (GST-AIDA-1c (human) [1]) | binding (GST-AIDA-1c (human) [2]) | Substance
binds | binds | – | – | coilin, endogenous (from UniProt P38432 1-576)
– | – | binds weakly | no binding | soluble full-length coilin, purified (from UniProt P38432 1-576)
